The values below come from publication PMC5839063.

Construct, isoform or probe ends are uncertain for at least one entry. A negative result means that nothing was seen under these conditions. For part of these data: Protein sequences can lack the tags named with them.

The target of one series is ArgR (UniProt Q9L1A5). The experiment in a line: EMSA. The conditions noted are these: L-arginine, unlabeled probe competition at 9.5x and 19x; EMSA: 5 uL buffer (10 mM Tris-HCl pH 7.4, 5 mM MgCl2, 2.5 mM CaCl2, 250 mM KCl, 0.5 mM DTT, 10 mM L-arginine) in 15 uL, poly(dI-dC) 1.3 ug/mL, 10% glycerol, 2 nM probe; recombinant protein; protein details: Strep-tag; label: 6-FAM; probe letters rebuilt from the primers and the genome; part of a longer molecule. For orientation: Mobility shift assays separate free from complexed probe on a gel.
Turning to “GCGACCTCGCCTGGTTCCACGACATGCACATCGGCTACATGCCGTACTACATCAACGCGTTCGCCTTCTACGGCCTGCTCACCGAGCTGTGCGCCCGCTGGCTCGGCAGCGACGGCGTGGGCCTGCAGAACCGCGTCAAGACCGACATGTCCAGCCTGCGCACCGTCGAGTCGGCCAAGGAGGTCTGGTCGGTCGCCCAGGCCGCCAAGAACGA (double strand) [redH (SCO5896) probe]”, the binding result is “binds”.

Still in this series, the particulars now being: L-arginine; EMSA: 5 uL buffer (10 mM Tris-HCl pH 7.4, 5 mM MgCl2, 2.5 mM CaCl2, 250 mM KCl, 0.5 mM DTT, 10 mM L-arginine) in 15 uL, poly(dI-dC) 1.3 ug/mL, 10% glycerol, 2 nM probe; recombinant protein; protein details: Strep-tag; label: 6-FAM; probe letters rebuilt from the primers and the genome; part of a longer molecule.
As for “CGCTGCCAGGAGTTGAGGATGCCCTCGGGCACGACCGCCGCAGGCAGTTCCGCGTTCTGAAGGAACTTCAGGCGTGCTCGCGCGATGGTTCGGTCGCGCGCTGTGCTGTCACTGAGCATGGCGCCCCTCCGATGAGCGTGTTTCCGCCATATTACGAACGCGTTTGCACCTGTCAACGGGGGGTTGGGTACGGCTTTTCCCCGCGTTCGCCGTGCCCTGATCAGGGGCGGGCCGGGTGTGTTCCACATTGAAAAAGTCGACGGCGCTCCCCGCCCGCACGCTGTTGGGCAGCACCGCACGAGAGCGCGGAGGCTCCCCGCCGAGCAGTCGAACCCTGGAGGACCCAT (double strand) [SCO0255-SCO0256 intergenic probe]”, the binding result is “binds”.
With “CGGATACTCGCACAAGCAGAATTTAAGAATTCTACTCAGCGCAGCTTCCCGTATTCTTCTGCCCGCTTTCTTCGGACCTAAACACAAAGATTTCACGACTAACGATCTTCACATTTCGGACACGTCTCGCACGGGTTACGCGATTGTGACCCGATCCACATGCTGCCCGATTTGCGGCTTACGCACCCGTCAAATCGCCCCATAACGCCGTCGTCTCGCGCGGAAGCACGCGCCCGCGTGATAACACAAGCGGCACTCATTCGTAACCCCATCCGGCGATGCAATTTCGAATTTCGCTGGGTAAATTCAATTTGCATGACTGCCGCGCAAGCAGACCTGCAAATCGATCGTCC (double strand) [ectA (SCO1863-SCO1864) intergenic probe]”, the binding result is given as “binds”.
Still for that read-out and setting: next, “GACGCACATCATGGAGACCGTCGACATCGGCGTCCCCCTGCGCACCGTCTACGACCAGTGGACGCAGCTCCAGGACTTCAGCGACTTCACCAAGGGCGTGCAGAGCGTCAGCCCCCACGACGAGACGACCTCGGACTGGACCGCCAAGATCGCTTTCTCGACCCGCAGCTGGAAG (double strand) [gvpZ2 (SCO0654) coding region probe]”: “no binding”; “GCGTAGGTGACGCTCCATCAGTGAGCTTCTTCGATGTGGCCACCGATCGGGTGACGGGCCGTGAAGCGCAACGAGCGAGGCCCCCGGGCTGTTGATCGAGATGTCTGACGTCTCAATCACGTTGCTCGGGGGCCTCGTTGGTCATGCATCCTGCCGCACTTGACCTGCCGCATGCACTCGTGGAGTGGGCCACCATGCT (double strand) [SCO5326 probe]”: “binds”; “TCCTCCTCTTCCGCCGGGAATCCGGGACGCCGCTGCTCCGGAACCCGCGGTCCACCGTCCATGCCGTCCCCCTAGACATCCTGAGCAACCACGTCAGTTTGCCTTGTTCATGCCGACCACGTCAGCCGTGGGAGACGCCGATCACAGGTTCTCCATCAGCTTCTTCGGCTTTGCCCCTCCAACTCCACCCGTACCGTCAGCAGCCCCGTCCCGACGCCCATCGCCCGCACCGCCACGCTGTTGAGGCGGGGGAGG (double strand) [afsR (SCO4426) promoter probe]”: “binds”.
For the sequence “TGTGGCGTCCGCGTCCTTCATCTTGTCGCTCATGGACTTCGCTCCTCATGGGTCGTGACGAGGTAGCAACGCCCGTCCGGTAGCTCCCCCGTAGGCTGCCGGACGGGCGCGCGGAGCCGCACACTAACTGGTGGGCTCGGTCGTCATCCGTCTGCCCCCCGATGCGACGGTCTGACGGAGATGACAGTGCCAGGGGGAGATAAACGAACGCTGAACGCTCCGG (double strand) [afsS (SCO4425) promoter probe]”, the binding result was “binds”.

For a further series, the target named is T1, ArgR (Streptomyces coelicolor M145) (UniProt Q9L1A5).
T1 sequence (looked up, limits assumed): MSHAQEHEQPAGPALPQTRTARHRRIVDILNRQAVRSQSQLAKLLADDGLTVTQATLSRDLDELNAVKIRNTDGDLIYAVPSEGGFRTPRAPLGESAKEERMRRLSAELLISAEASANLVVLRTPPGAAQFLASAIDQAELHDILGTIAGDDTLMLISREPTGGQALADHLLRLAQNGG
The experiment in a line: EMSA. To be noted: L-arginine (10 mM in binding buffer); 15 uL reaction with 5 uL buffer (10 mM Tris-HCl pH 7.4, 5 mM MgCl2, 2.5 mM CaCl2, 250 mM KCl, 0.5 mM DTT, 10 mM L-arginine), poly(dIdC) 1.3 ug/mL, 10% glycerol; recombinant protein; protein details: Strep-tag; label: 6-FAM; flanks not given.
Turning to “GGGGTCACCGGGTGGCTGCACGCCGTGGACATCGACTCGGGGGCGCAAGTCGGGGCCGGGGCGGACCAGCCGGTCTGCACGGCCAGTGTCCACAAGCTGTGCGTGCTGGTGACGCTGCACGAGCTGGCGGCGGCCGGGGAACTGGACCTCACCGAGCGGATCGAGTGCCCGCCGACCGGCCGCACGCCCGGGCCCACCGGGCTCGCGGCCATGCTCGA (double strand) [Coding region of SCO3774]”, the binding result is “no binding”.
The same measure, in the same setting: next, “GGTTTCATGCTAGGGCAGGACGGGCGGCAGCCGCGGATCACCCGCGAGTCGTTCAACGTTCACCTTCCCCGCCGATTCTCCTCGAAGCCGCGCACGGCGGCGGTCTTCAGGAGGAACACGCATGGGGCACGGACACGGACACCCGCACGGTCACCACCACCACGGACATACGCACGACCACGAGCACGCCACCGAACAG (double strand) [Promoter region of SCO6145]”: “no binding”.
In the case of “TCACCTCGACCGGTGGCGTGATCACCGCGGCCGGGCTGGTGCTGGCCGGGACCTTCGCCGCGCTGGCCACGCTGCCGCTGGTCTTCATCGCCGAGCTCGGATTCACGGTCGCGGTGGGCGTCCTGCTCGACACCATGATCGTGCGATCGGTCCTGGTCACCGCGCTCACTCTCGATGTCGGCCGGTGGATGTGGTGGCCGCACCCGCTCGCCCGGCGCGAGGACCCTTC (double strand) [Coding region of SCO5084, actII-3]”, the binding result is listed as “no binding”.
Take “TGGCCGTTTCAGTCCTCCGGGAAGCCGGTATTCCGGGGGCGTGTGCGCCGAAGTATGGAGAAGATCTGCATAATCTCTGGAGGTCGCGAGGGGGTCGCGAGGGGAGGGACGAACGCGTGGATCAGCAGAAGGAGCCGTCGCAGGACCGGCCGGCGGGGGCCGCCTGCCCGGAGTGCGGCACACCCAGGGCGGCGGACAACACC (double strand) [Coding region of SCO2345]”: the binding result is “no binding”.
Still for that read-out and setting: next, “TTCGGCAACGGCAACGGCACGGGGGACGGCACGGAGGGCGCGTACAACGACACGGTCTTCGGCACCTACATGCACGGCCCCGTGCTGGCCCGCAACCCGCTGATCGCGGACCTGCTGCTCAAGCTGGCCCTCGACGTGAACGCGCTGCCGCCGACCGACGACCGCTGGTACGAGGCGCTGCGCAACGAGCGCATCGCGGCCGCGCAGCAGCCTGCCTGACCCTGGCGGGGCGGGCCCGTCTGATGCCCCGTCCGCACAGGTGAGCGGACTCGTCCAGTAGGCGGACGCACGGTTCGGTCCCGCCCCCCGATGCCGCTAGGGTGGCGGGGATCGAGCCGGACAGCGCGGTCCGGACCCGTGCCACGTTGAGAAGGTATTTCGGGCTATGCGCATTGGTGTCCTCACGTCCGGCGGCGACTGCCCCGGCCTGAACGCCGTCATCCGGTCCGTCGTGCACCGCGCCGTCGTCGACCACGGCGACGAGGTCATCGGTTTCCGGGACGGCT (double strand) [Promoter region of SCO1214]”: “no binding”.
